PubChem BioAssay AID1259425, University of Nebraska Medical Center – 2018
Test: 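Compare each knockdown with KSR1 silencing using changes in marker transcripts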 (primary screen). Cell system: HCT116 human colon cancer cells. Reagents: siRNA pool against human genes, 50 nM siRNA. Measurement: 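After 50 nM siRNA pool, branched-DNA assay measures six marker transcripts per well, minus blank, normalised to the geometric mean of two housekeeping transcripts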. Scale: BNIP3L mRNA: higher = more BNIP3L transcript after knockdown.
The deposit covers about 14,000 reagents; this is a random part of them. Further read-outs or replicates are left out here. Not stated in the record: the time to read-out.

PNPLA4 gave BNIP3L mRNA, set 1 = 0.0694.
For PEX12, the entry reads BNIP3L mRNA, set 1 = 0.178.
BDH1 scored BNIP3L mRNA, set 1 = 0.132.
With knock-down of RCN2, the record shows BNIP3L mRNA, set 1 = 0.0795.
Silencing of IFT80 came out at: BNIP3L mRNA, set 1 = 0.0803.
After knock-down of SLFN12, the record shows BNIP3L mRNA, set 1 = 0.143.
ADAMTS16 gave BNIP3L mRNA, set 1 = 0.0762.
Silencing of SPINT2 came out at: BNIP3L mRNA, set 1 = 0.0635.
PROZ gave BNIP3L mRNA, set 1 = 0.162.
For DMP1 the deposit lists BNIP3L mRNA, set 1 = 0.171.
Silencing of SLC25A37 gave: BNIP3L mRNA, set 1 = 0.0568.
WBP11 showed BNIP3L mRNA, set 1 = 0.191.
For S1PR3, the values are BNIP3L mRNA, set 1 = 0.133.
Against SH2D4A, the values are BNIP3L mRNA, set 1 = 0.0704.
After knock-down of PPP3CC, the screen gave BNIP3L mRNA, set 1 = 0.0896.
Depletion of HLA-C gave: BNIP3L mRNA, set 1 = 0.0695.
Silencing of MOSPD3 gave: BNIP3L mRNA, set 1 = 0.0595.
With knock-down of CCNDBP1 the results were BNIP3L mRNA, set 1 = 0.216.
After knock-down of PRKY, the screen gave BNIP3L mRNA, set 1 = 0.227.
STC1 scored BNIP3L mRNA, set 1 = 0.191.
Against PADI3, the entry reads BNIP3L mRNA, set 1 = 0.0991.
TEX11 showed BNIP3L mRNA, set 1 = 0.368.
Against GTF3C2, the values are BNIP3L mRNA, set 1 = 0.0519.
For ST3GAL3 the deposit lists BNIP3L mRNA, set 1 = 0.25.
Depletion of ZBTB37 came out at: BNIP3L mRNA, set 1 = 0.13.
TMEM120A gave BNIP3L mRNA, set 1 = 0.234.
After knock-down of HCK, the screen gave BNIP3L mRNA, set 1 = 0.0948.
With knock-down of DES, the screen gave BNIP3L mRNA, set 1 = 0.137.

A stretch from the list above:
MOSPD3 — BNIP3L mRNA, set 1 = 0.0595
CCNDBP1 — BNIP3L mRNA, set 1 = 0.216
PRKY — BNIP3L mRNA, set 1 = 0.227
